# Measurements: the supplement of paper PMC12823440, “Inhibitors supercharge kinase turnover through native proteolytic circuits” (Nature, 2025)
# Amino acid sequences for entries named in this document (tags omitted). A change or cut given only in a name is not applied to a line headed by its entry.
# UniProt Q15208: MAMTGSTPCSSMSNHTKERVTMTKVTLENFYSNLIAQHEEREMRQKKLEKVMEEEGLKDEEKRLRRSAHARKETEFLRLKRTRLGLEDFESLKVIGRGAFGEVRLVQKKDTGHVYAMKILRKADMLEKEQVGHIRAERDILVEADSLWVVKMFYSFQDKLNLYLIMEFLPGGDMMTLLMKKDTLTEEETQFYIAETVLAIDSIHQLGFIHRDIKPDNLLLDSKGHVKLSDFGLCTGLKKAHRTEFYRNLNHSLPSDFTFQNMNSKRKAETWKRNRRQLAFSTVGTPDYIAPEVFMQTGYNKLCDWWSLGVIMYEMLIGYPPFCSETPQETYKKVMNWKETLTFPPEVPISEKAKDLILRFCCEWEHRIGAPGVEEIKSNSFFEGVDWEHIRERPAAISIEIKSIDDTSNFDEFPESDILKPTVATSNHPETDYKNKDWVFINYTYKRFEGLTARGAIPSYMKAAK
# UniProt P42680: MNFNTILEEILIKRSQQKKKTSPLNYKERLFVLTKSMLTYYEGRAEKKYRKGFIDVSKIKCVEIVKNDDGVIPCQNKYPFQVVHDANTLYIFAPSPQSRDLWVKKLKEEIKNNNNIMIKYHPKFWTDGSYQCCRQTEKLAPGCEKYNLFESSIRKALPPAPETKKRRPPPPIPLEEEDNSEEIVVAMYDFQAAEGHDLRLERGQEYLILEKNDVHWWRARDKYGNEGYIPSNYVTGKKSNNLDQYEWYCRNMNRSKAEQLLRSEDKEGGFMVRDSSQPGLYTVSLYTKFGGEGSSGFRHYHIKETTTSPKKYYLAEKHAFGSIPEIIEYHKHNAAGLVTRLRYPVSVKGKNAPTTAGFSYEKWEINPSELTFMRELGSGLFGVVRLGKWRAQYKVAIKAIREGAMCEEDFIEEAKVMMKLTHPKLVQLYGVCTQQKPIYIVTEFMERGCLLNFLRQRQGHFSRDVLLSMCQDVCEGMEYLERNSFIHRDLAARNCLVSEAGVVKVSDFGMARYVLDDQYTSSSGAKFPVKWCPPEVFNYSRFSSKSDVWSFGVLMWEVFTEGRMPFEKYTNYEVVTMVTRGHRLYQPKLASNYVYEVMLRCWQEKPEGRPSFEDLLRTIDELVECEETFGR
# UniProt P29597: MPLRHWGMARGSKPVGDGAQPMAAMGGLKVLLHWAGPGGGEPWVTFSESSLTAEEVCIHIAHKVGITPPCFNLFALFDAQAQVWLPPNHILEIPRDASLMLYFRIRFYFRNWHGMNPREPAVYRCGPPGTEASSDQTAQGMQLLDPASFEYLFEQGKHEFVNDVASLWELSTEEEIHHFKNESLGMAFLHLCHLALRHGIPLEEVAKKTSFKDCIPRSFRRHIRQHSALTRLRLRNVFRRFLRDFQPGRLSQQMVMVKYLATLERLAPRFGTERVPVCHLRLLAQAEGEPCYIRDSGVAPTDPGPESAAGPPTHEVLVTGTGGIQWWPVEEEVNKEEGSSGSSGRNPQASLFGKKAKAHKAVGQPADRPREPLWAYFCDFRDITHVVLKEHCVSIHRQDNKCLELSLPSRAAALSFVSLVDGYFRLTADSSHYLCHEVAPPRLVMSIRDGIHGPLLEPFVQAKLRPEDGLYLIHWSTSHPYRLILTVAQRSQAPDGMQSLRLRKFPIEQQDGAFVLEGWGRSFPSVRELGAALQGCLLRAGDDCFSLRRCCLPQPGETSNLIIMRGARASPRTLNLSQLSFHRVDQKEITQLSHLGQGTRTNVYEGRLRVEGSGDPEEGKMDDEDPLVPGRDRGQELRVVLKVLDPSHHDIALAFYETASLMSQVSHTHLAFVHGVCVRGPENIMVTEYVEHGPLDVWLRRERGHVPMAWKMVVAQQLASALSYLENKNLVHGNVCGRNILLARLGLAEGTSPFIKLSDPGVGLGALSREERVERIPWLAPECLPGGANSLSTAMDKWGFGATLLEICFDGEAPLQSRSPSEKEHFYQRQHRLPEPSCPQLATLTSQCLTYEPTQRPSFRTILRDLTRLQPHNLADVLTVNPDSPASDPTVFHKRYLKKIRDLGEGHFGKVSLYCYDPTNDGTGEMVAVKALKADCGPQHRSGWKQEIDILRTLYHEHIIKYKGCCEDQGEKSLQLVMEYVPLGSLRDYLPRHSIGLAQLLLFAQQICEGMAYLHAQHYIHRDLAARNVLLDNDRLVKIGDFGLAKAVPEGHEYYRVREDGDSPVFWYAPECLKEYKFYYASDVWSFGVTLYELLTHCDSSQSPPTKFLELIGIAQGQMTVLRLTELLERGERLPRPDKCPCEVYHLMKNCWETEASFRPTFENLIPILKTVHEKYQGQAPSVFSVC
# UniProt Q6PHR2: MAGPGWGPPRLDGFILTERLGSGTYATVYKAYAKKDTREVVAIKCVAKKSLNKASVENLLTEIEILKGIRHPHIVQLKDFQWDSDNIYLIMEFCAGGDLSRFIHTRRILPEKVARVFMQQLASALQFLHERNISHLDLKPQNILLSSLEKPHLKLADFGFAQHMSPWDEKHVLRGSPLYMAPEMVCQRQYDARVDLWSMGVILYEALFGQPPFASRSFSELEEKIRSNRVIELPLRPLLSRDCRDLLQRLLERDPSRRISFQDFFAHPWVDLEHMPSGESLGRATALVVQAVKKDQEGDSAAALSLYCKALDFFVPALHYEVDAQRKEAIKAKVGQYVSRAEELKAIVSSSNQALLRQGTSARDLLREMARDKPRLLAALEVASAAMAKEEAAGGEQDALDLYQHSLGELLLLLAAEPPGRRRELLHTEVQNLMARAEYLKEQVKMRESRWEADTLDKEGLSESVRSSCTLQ
# UniProt P07947, whole entry, looked up: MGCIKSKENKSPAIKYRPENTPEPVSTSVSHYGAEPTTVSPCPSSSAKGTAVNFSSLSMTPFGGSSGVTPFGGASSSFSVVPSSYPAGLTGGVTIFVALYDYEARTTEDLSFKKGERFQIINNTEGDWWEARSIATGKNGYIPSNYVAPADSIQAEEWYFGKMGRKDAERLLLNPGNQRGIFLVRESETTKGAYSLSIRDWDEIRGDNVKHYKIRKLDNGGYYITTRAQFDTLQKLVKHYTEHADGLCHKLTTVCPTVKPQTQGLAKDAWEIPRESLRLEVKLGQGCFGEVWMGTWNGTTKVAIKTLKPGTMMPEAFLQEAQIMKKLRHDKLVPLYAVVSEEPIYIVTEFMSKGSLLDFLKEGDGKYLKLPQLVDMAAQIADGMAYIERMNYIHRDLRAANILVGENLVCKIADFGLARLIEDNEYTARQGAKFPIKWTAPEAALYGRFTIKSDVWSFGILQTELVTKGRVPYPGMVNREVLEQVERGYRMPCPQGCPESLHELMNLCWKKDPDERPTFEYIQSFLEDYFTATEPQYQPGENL
# UniProt P43403: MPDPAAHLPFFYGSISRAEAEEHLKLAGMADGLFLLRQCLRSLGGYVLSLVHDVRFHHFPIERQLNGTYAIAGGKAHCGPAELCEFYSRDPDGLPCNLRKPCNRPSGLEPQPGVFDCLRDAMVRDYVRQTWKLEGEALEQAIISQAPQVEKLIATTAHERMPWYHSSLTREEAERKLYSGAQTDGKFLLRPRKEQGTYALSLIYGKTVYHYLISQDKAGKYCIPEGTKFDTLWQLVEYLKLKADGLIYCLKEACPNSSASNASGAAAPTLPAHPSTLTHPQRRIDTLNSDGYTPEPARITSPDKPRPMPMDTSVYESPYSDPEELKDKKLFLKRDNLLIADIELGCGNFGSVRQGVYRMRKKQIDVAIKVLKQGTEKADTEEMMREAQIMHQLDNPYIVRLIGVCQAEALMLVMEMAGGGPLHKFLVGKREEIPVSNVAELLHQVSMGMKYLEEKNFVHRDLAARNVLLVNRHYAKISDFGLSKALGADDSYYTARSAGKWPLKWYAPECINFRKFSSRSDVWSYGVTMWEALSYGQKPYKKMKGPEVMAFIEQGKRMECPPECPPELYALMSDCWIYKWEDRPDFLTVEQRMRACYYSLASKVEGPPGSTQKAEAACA
# UniProt P00519, whole entry: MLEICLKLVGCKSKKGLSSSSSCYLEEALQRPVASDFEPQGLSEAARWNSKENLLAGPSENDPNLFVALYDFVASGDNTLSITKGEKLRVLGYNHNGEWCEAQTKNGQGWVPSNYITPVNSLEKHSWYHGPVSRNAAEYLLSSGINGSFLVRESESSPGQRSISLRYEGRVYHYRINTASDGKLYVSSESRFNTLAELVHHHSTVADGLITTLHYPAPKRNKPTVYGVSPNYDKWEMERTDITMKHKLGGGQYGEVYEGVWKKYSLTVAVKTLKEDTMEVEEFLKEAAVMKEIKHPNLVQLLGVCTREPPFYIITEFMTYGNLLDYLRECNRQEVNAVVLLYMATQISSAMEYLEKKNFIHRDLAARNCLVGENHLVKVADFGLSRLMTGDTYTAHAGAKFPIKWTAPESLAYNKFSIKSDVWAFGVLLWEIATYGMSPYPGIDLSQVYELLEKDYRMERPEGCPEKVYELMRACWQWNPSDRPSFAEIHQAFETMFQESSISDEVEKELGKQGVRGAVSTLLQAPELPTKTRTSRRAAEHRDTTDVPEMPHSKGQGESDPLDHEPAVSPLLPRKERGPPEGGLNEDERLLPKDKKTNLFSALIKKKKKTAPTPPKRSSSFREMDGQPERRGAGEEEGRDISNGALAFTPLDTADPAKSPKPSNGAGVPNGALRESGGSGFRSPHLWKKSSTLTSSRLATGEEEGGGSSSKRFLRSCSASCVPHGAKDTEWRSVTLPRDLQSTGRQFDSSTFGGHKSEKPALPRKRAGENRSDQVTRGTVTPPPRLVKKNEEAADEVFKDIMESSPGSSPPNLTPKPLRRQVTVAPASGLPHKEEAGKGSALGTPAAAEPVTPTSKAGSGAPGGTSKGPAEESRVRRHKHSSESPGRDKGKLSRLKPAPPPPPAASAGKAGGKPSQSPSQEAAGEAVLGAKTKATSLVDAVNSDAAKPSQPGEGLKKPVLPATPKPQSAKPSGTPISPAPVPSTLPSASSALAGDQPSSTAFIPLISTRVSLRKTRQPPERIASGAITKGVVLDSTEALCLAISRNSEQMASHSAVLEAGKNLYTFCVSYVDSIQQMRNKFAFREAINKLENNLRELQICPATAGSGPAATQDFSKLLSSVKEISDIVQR
# UniProt P31749: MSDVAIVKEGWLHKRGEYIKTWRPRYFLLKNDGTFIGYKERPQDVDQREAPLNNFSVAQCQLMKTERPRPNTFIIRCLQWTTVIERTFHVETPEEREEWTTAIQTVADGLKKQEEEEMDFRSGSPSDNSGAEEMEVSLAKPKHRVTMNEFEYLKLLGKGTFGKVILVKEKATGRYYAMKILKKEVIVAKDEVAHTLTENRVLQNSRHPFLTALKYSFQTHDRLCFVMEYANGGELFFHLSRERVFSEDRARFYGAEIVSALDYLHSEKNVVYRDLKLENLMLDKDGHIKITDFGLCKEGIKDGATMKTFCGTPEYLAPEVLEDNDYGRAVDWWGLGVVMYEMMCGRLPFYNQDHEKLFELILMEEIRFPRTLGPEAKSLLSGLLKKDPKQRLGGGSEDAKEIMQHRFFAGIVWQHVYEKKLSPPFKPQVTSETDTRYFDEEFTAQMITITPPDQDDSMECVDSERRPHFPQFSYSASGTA
# Counter-ions that a name gives are not always drawn. The list shows a part of the results. Hit calls seldom repeat between salt and free forms of one compound.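 Kinases were expressed as nanoluciferase fusions in K562 cells and luminescence was read every 4 h between 2 and 18 h as percent of control, DMSO set to 100% and a positive control to 0%. A time point counts as decreased when the signal drops significantly (2 sigma). The hit call is the authors' own, does not follow from the count of time points alone, and its rule is not shown.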
# Key:
# Conditions in all cases: K562; 2-18 h
# STK38 = STK38 (UniProt Q15208); experiment: kinase-Nluc reporter destabilization hit call (1 = scored as downregulated) (binary); higher = compound decreases kinase abundance
# SYK = SYK (UniProt P43405); experiment: as above
# TEC = TEC (UniProt P42680); experiment: as above
# TYK2 = TYK2 (UniProt P29597); experiment: as above
# ULK3 = ULK3 (UniProt Q6PHR2); experiment: as above
# YES1 = YES1 (UniProt P07947); experiment: as above
# ZAK = ZAK (UniProt Q9NYL2); experiment: as above
# ZAP70 = ZAP70 (UniProt P43403); experiment: as above
# ABL1 = ABL1 (UniProt P00519); experiment: number of time points (of 5) at which kinase-Nluc abundance scored as decreased, DMSO-normalised (count); higher = more persistent destabilization
# AKT1 = AKT1 (UniProt P31749); experiment: as above
Compound,kinase-Nluc reporter destabilization hit call (STK38),kinase-Nluc reporter destabilization hit call (SYK),kinase-Nluc reporter destabilization hit call (TEC),kinase-Nluc reporter destabilization hit call (TYK2),kinase-Nluc reporter destabilization hit call (ULK3),kinase-Nluc reporter destabilization hit call (YES1),kinase-Nluc reporter destabilization hit call (ZAK),kinase-Nluc reporter destabilization hit call (ZAP70),number of time points (ABL1),number of time points (AKT1)
CC/C(=C(\c1ccccc1)c1ccc(OCCNC)cc1)c1ccccc1 [N-Desmethyltamoxifen (hydrochloride)] (2.5 µM),inactive: 0,inactive: 0,inactive: 0,inactive: 0,inactive: 0,inactive: 0,inactive: 0,inactive: 0,0,0
COc1cc(N2CCC(O)CC2)ccc1Nc1nc(Nc2ccccc2S(=O)(=O)C(C)C)c2[nH]cnc2n1 (10 µM),inactive: 0,inactive: 0,inactive: 0,inactive: 0,inactive: 0,inactive: 0,inactive: 0,inactive: 0,0,0
Cc1nc(Nc2cnn(C3CCNCC3)c2)nc2c1N(C)C(=O)c1cc3ccccc3cc1N2C (2.5 µM),inactive: 0,inactive: 0,inactive: 0,inactive: 0,inactive: 0,inactive: 0,inactive: 0,inactive: 0,0,0
O=C1OC(COc2ccccc2[N+](=O)[O-])CC1Cc1ccccc1 (configuration not stated) (10 µM),inactive: 0,inactive: 0,inactive: 0,inactive: 0,inactive: 0,inactive: 0,inactive: 0,inactive: 0,0,0
C[C@@H]1COC(Nc2ccc3ncnc(Nc4ccc(OCc5nccs5)c(Cl)c4)c3c2)=N1 [Varlitinib] (10 µM),inactive: 0,inactive: 0,inactive: 0,inactive: 0,inactive: 0,inactive: 0,inactive: 0,inactive: 0,0,0
O=C(Nc1ccnc(NC(=O)C2CC2)c1)c1c(Cl)cccc1Cl (10 µM),inactive: 0,inactive: 0,inactive: 0,inactive: 0,inactive: 0,inactive: 0,inactive: 0,inactive: 0,0,0
Cn1cc(-c2nc(N[C@@H]3CCCC[C@@H]3N)c(F)c3c2C(=O)NC3)cn1 [TAK-659 (hydrochloride)] (2 µM),inactive: 0,–,inactive: 0,inactive: 0,inactive: 0,inactive: 0,inactive: 0,inactive: 0,0,0
Cc1ccc(Nc2cc(N[C@@H]3CCCC[C@@H]3N)nnc2C(N)=O)nc1C (2 µM),inactive: 0,–,inactive: 0,inactive: 0,inactive: 0,inactive: 0,inactive: 0,inactive: 0,0,0
Nc1[nH]nc2nnc(-c3c(-c4ccccc4)nn4ccccc34)cc12 (10 µM),inactive: 0,inactive: 0,inactive: 0,inactive: 0,inactive: 0,inactive: 0,inactive: 0,inactive: 0,0,0
COc1cccc(-c2cc(=O)c3ccccc3o2)c1N (10 µM),inactive: 0,inactive: 0,inactive: 0,inactive: 0,inactive: 0,inactive: 0,inactive: 0,inactive: 0,0,0
CN(C)c1cc[n+](Cc2ccc(OCCOc3ccc(C[n+]4ccc(N(C)C)cc4)cc3)cc2)cc1 (10 µM),inactive: 0,inactive: 0,inactive: 0,inactive: 0,inactive: 0,inactive: 0,inactive: 0,inactive: 0,0,0
CC(C1CC1)n1cnc2c(NCc3cccc(C(F)(F)F)c3)nc(NCCN(C)C)nc21 (configuration not stated) (10 µM),inactive: 0,inactive: 0,inactive: 0,inactive: 0,inactive: 0,inactive: 0,inactive: 0,inactive: 0,0,0
CN(C)c1ccc(/C=C2\C(=O)Nc3ccccc32)c2ccccc12 (10 µM),inactive: 0,inactive: 0,inactive: 0,inactive: 0,inactive: 0,inactive: 0,inactive: 0,inactive: 0,0,0
NC(=O)c1ccccc1Nc1ccnc(Nc2cccc(O)c2)n1 (10 µM),inactive: 0,inactive: 0,inactive: 0,inactive: 0,inactive: 0,inactive: 0,inactive: 0,inactive: 0,5,0
Cc1cncc2cccc(S(=O)(=O)N3CCCNC[C@@H]3C)c12 [H-1152 (dihydrochloride)] (10 µM),inactive: 0,inactive: 0,inactive: 0,inactive: 0,inactive: 0,inactive: 0,inactive: 0,inactive: 0,0,0
CN(C)CCOc1cc(-c2cn[nH]c2)ccc1NC(=O)C1COc2ccccc2O1 (configuration not stated) (10 µM),inactive: 0,inactive: 0,inactive: 0,inactive: 0,inactive: 0,inactive: 0,inactive: 0,inactive: 0,0,0
O=C1C=CC2=C3c4cc(O)c(O)cc4CC3(O)COC2=C1O (configuration not stated) [Hematein] (10 µM),inactive: 0,inactive: 0,inactive: 0,inactive: 0,inactive: 0,inactive: 0,inactive: 0,inactive: 0,0,0

Compound,kinase-Nluc reporter destabilization hit call (STK38),kinase-Nluc reporter destabilization hit call (SYK),kinase-Nluc reporter destabilization hit call (TEC),kinase-Nluc reporter destabilization hit call (TYK2),kinase-Nluc reporter destabilization hit call (ULK3),kinase-Nluc reporter destabilization hit call (YES1),kinase-Nluc reporter destabilization hit call (ZAK),kinase-Nluc reporter destabilization hit call (ZAP70),number of time points (ABL1),number of time points (AKT1)
COc1cc2nccc(Nc3cccc(Oc4ccccc4)c3)c2cc1OC (2.5 µM),–,inactive: 0,inactive: 0,inactive: 0,inactive: 0,inactive: 0,inactive: 0,inactive: 0,0,0
CCOC(=O)c1c(C)[nH]c(C=C2C(=O)Nc3ccccc32)c1C (10 µM),–,inactive: 0,inactive: 0,inactive: 0,inactive: 0,inactive: 0,inactive: 0,inactive: 0,0,0
Cc1cccc(CC(=O)N2CCc3c2ccc(-c2cn(C)c4ncnc(N)c24)c3F)n1 (10 µM),inactive: 0,inactive: 0,inactive: 0,inactive: 0,inactive: 0,inactive: 0,inactive: 0,inactive: 0,0,0
O=C1Cc2ccccc2N1 [Oxindole] (10 µM),inactive: 0,inactive: 0,inactive: 0,inactive: 0,inactive: 0,inactive: 0,inactive: 0,inactive: 0,0,0
CN1CCN(c2ccc(-c3ccncc3-c3cc(F)c(O)c(F)c3)cc2)CC1 (10 µM),inactive: 0,inactive: 0,inactive: 0,inactive: 0,inactive: 0,inactive: 0,inactive: 0,inactive: 0,0,0
CCC[C@H](C)Oc1nc(N)c2[nH]c(=O)n(CCCCCN3CCCCC3)c2n1 (10 µM),inactive: 0,inactive: 0,inactive: 0,inactive: 0,inactive: 0,inactive: 0,inactive: 0,inactive: 0,0,0
CN1CCC(Nc2nc(Nc3ccc(Oc4ccccc4)cc3)c3c(=O)[nH]cc(Br)c3n2)CC1 (2.5 µM),inactive: 0,inactive: 0,inactive: 0,inactive: 0,inactive: 0,inactive: 0,inactive: 0,inactive: 0,0,0
Cc1cnc(Nc2ccc(F)cc2Cl)nc1-c1c[nH]c(C(=O)N[C@H](CO)c2cccc(Cl)c2)c1 (10 µM),inactive: 0,–,inactive: 0,inactive: 0,inactive: 0,inactive: 0,inactive: 0,inactive: 0,0,0
NC(=O)c1cnc(N[C@@H]2CCCC[C@@H]2N)nc1Nc1cccc(-n2nccn2)c1 (2.5 µM),inactive: 0,–,inactive: 0,inactive: 0,inactive: 0,inactive: 0,inactive: 0,inactive: 0,0,0
CC1(C)CN(C(=O)c2ccc(-c3cccc4nc(NC(=O)C5CC5)nn34)cc2)C1 [Solcitinib] (10 µM),–,inactive: 0,inactive: 0,inactive: 0,inactive: 0,inactive: 0,inactive: 0,inactive: 0,0,0
NC(=O)c1c(NC(=O)C2CC2)sc2c1CCCC2 (10 µM),inactive: 0,inactive: 0,inactive: 0,inactive: 0,inactive: 0,inactive: 0,inactive: 0,inactive: 0,0,0
CN(C)CCn1cc2cc(NC(=O)c3cccc(C(F)(F)F)n3)c(C(C)(C)O)cc2n1 (10 µM),inactive: 0,inactive: 0,inactive: 0,inactive: 0,inactive: 0,inactive: 0,inactive: 0,inactive: 0,0,0
CCNC(=O)Nc1ccc(-c2nc3c(c(N4CCOC[C@@H]4C)n2)CCN(C2COC2)C3)cc1 (2.5 µM),inactive: 0,inactive: 0,inactive: 0,–,inactive: 0,inactive: 0,inactive: 0,inactive: 0,0,0
Nc1ccc(O)c(C(=O)O)c1 [5-Aminosalicylic Acid] (10 µM),inactive: 0,inactive: 0,inactive: 0,inactive: 0,inactive: 0,inactive: 0,inactive: 0,inactive: 0,0,0
COCCOc1cnc2ccn([C@H](C)c3nnc4c(F)cc(-c5cnn(C)c5)cn34)c(=O)c2c1 (10 µM),inactive: 0,inactive: 0,inactive: 0,inactive: 0,inactive: 0,inactive: 0,inactive: 0,inactive: 0,0,0
C[C@H](Nc1cc2c(-c3ccc4c(c3)OCO4)noc2cn1)c1ccccc1 (10 µM),inactive: 0,inactive: 0,inactive: 0,inactive: 0,inactive: 0,inactive: 0,inactive: 0,inactive: 0,0,0
C[C@@H](NC(=O)c1ncnc(N)c1Cl)c1ncc(C(=O)Nc2cc(C(F)(F)F)c(Cl)cn2)s1 (2.5 µM),inactive: 0,inactive: 0,inactive: 0,inactive: 0,inactive: 0,inactive: 0,inactive: 0,inactive: 0,2,0

# Some of the entries above in a different format:
Compound	kinase-Nluc reporter destabilization hit call (STK38)	kinase-Nluc reporter destabilization hit call (SYK)	kinase-Nluc reporter destabilization hit call (TEC)	kinase-Nluc reporter destabilization hit call (TYK2)	kinase-Nluc reporter destabilization hit call (ULK3)	kinase-Nluc reporter destabilization hit call (YES1)	kinase-Nluc reporter destabilization hit call (ZAK)	kinase-Nluc reporter destabilization hit call (ZAP70)	number of time points (ABL1)	number of time points (AKT1)
Cc1cnc(Nc2ccc(F)cc2Cl)nc1-c1c[nH]c(C(=O)N[C@H](CO)c2cccc(Cl)c2)c1 (10 µM)	inactive: 0	–	inactive: 0	inactive: 0	inactive: 0	inactive: 0	inactive: 0	inactive: 0	0	0
NC(=O)c1cnc(N[C@@H]2CCCC[C@@H]2N)nc1Nc1cccc(-n2nccn2)c1 (2.5 µM)	inactive: 0	–	inactive: 0	inactive: 0	inactive: 0	inactive: 0	inactive: 0	inactive: 0	0	0
CCNC(=O)Nc1ccc(-c2nc3c(c(N4CCOC[C@@H]4C)n2)CCN(C2COC2)C3)cc1 (2.5 µM)	inactive: 0	inactive: 0	inactive: 0	–	inactive: 0	inactive: 0	inactive: 0	inactive: 0	0	0
